{"source": "paper PMC9358981", "about": "(Journal of pharmacological and toxicological methods, 2021)", "tested_on": "MN9D cells", "test": "BDNF secretion via in situ ELISA", "assay_type": "cell-based", "details": "compound 10 μM + 15 nM BD1063, MN9D cells", "data": [{"smiles": "COc1cc2c(cc1OC)C(=O)C(CC1CCN(Cc3ccccc3)CC1)C2", "note": "(stereo not shown) [Donepezil]", "values": [{"measurement": "Reversal of the BDNF response by S1R-selective concentration of BD1063", "value": "could be reversed"}]}]}
